In PubChem BioAssay AID540276 (National Center for Advancing Translational Sciences (NCATS), 2011):
About 5,400 (1.8%) of roughly 300,000 compounds were called active. This list was built around the results that the source calls inconclusive (neither active nor inactive); the mix of calls is not that of the screen. The call rests on the fitted dose curve; tested in HEK293 cells. Where the call is inconclusive, the potency comes from a doubtful curve fit.

Test: qHTS for inhibitors of binding or entry into cells for Marburg Virus
Settings: Marburg virus pseudotyped entry inhibition, cell reporter; series mostly up to 37.8 µM
Potency means the concentration at half of the fitted maximal effect.

Structure (SMILES)	Potency
Cc1noc(/C=C/c2ccco2)c1S(=O)(=O)N1CCC(C(=O)N2CCc3ccccc3C2)CC1	inactive
Cn1nnnc1SCC(=O)Nc1nc2c(s1)CCCC2	inconclusive: 5.17 µM [activator, single point]
COc1ccc(C(C(=O)NC(C)(C)C)N(Cc2ccc(F)cc2)C(=O)CCC(=O)Nc2cc(C)on2)cc1 (centres undefined)	inconclusive: 20 µM [inhibitor, partial curve, poor fit]
CCN(CC(=O)Nc1cccc(S(=O)(=O)N2CCCCC2)c1)Cc1ccccc1	inconclusive: 22.4 µM [inhibitor, single point]
CCCc1cc(=O)[nH]c(Nc2ccc(C)c(O)c2)n1	inactive
CCCCOc1ccc(C(=O)Nc2nc3c(s2)CC(C)CC3)cc1 (centres undefined)	inactive
Cc1ccc(CN2CCN(Cc3cccn3-c3ccc(Cl)cn3)CC2CCO)o1 (centres undefined)	inactive
COc1ccc(-c2nnc(NC(=O)CSc3ccccc3)s2)cc1OC	inconclusive: 4.47 µM [inhibitor, full curve, poor fit]
CCOC(=O)C1CCN(Cc2ccc(N(C)C)cc2)CC1	inconclusive: 29.1 µM [inhibitor, partial curve, poor fit]
N=C1C(=O)NC(=O)C1c1ccccc1 (centres undefined)	inconclusive: 0.631 µM [inhibitor, single point]
O=C(Nc1ccccc1C(F)(F)F)N1CCC2(CC1)Oc1ccccc1C(=O)N2Cc1ccccc1F	inconclusive: 2.82 µM [inhibitor, single point]
O=C(Cn1cc(C(F)(F)F)ccc1=O)N/N=C/c1ccc(Cl)cc1	inconclusive: 10 µM [inhibitor, partial curve, poor fit]
CCCNC(=O)c1oc2ccc3c(c2c1C)C=CC(C)(C)O3	inconclusive: 35.5 µM [inhibitor, single point]
COc1cccc(CNC(=O)CCC2CCCN(Cc3cc4ccccc4o3)C2)c1 (centres undefined)	inconclusive: 11.2 µM [inhibitor, partial curve, poor fit]
Cc1cccnc1CCNC(=O)c1ccc(OC2CCN(Cc3ccccn3)CC2)cc1	inconclusive: 11.2 µM [inhibitor, single point]
CC1Cc2ccccc2N1C(=O)CNc1ccccc1N1CCCCC1 (centres undefined)	inactive
O=C(CC(NS(=O)(=O)c1ccc(Cl)cc1)c1ccco1)NCc1cccnc1 (centres undefined)	inconclusive: 1.26 µM [inhibitor, partial curve]
COC(=O)c1cccc(CN2C(=O)SC(Nc3ccc(Cl)cc3)C2=O)c1 (centres undefined)	inconclusive: 6.31 µM [activator, single point]
c1csc(COc2ccccc2CNC2CCCCC2)c1	inconclusive: 20 µM [inhibitor, partial curve, poor fit]
CN(C)C(C)(C)/C=C/C(O)(c1ccccc1)c1ccccc1	inconclusive: 14.1 µM [inhibitor, single point]
CCCS(=O)(=O)c1snnc1C	inactive
CCOc1cc(/C=N/NC(=O)c2ccc3c(c2)OCCO3)cc(Br)c1O	inactive
Cc1ccccc1N(C)C(=O)c1coc(=O)c2ccccc12	inactive

Structure (SMILES)	Potency
CCn1c(CC(=O)Nc2ccccc2C)nnc1SCC(=O)NC1CCCC1	inactive
Cc1ccc(CNC(=O)[C@H](Cc2ccccc2)NC(=O)C2CCNCC2)cc1	inconclusive: 0.708 µM [inhibitor, full curve, poor fit]
Cc1cnc(NC(=O)CSc2nnc(C)s2)s1	inconclusive: 0.146 µM [inhibitor, full curve, poor fit]
S=C(NCc1ccccn1)Nc1ccccc1	inconclusive: 3.55 µM [activator, partial curve, poor fit]
CN(C)CCNc1ccc2ncn3c4ccc(O)cc4c(=O)c1c23	inconclusive: 1.78 µM [inhibitor, full curve, poor fit]
COC(=O)c1cn(NC(=O)CC2CCCCC2)c(=O)c2ccccc12	inconclusive: 6.51 µM [inhibitor, single point]
CC(=O)/C(=N/Nc1ccccc1)Sc1nnc(CCc2ccccc2)n1-c1ccccc1	inconclusive: 0.058 µM [activator, partial curve, poor fit]
CN1CCN(C(=O)c2cc(C(C)(C)C)cc(C(C)(C)C)c2)CC1	inconclusive: 3.16 µM [activator, single point]
O=C(CSc1ccc2nnc(-c3ccncc3)n2n1)N1CCc2ccccc21	inactive
Cc1cc(Cl)ccc1NNC(N)=S	inconclusive: 0.398 µM [inhibitor, partial curve, poor fit]
CCCOc1ccc(C(C)=O)cc1CSc1nc(O)cc(=O)[nH]1	inactive
CCN(CC)C(=O)c1sc2nc(-c3cccs3)cc(-c3ccc(Cl)cc3)c2c1N	inconclusive: 6.31 µM [inhibitor, single point]
CCn1nnnc1SCC(=O)Nc1nc2ccccc2s1	inactive
O=c1c2ccccc2nc(N2CCN(c3cccc(Cl)c3)CC2)n1-c1ccccc1	inconclusive: 35.5 µM [inhibitor, single point]
CN(C)c1nc(SCC(=O)Nc2ccc(Cl)c(Cl)c2)nc(N2CCOCC2)n1	inconclusive: 35.5 µM [inhibitor, partial curve, poor fit]
CC(C)(C)C(=O)Nc1ccc(-c2nc3ccccc3c(=O)o2)cc1	inconclusive: 35.5 µM [inhibitor, single point]
Cc1cccc(N2CCN(C(=O)CSCc3c(C)noc3C)CC2)c1C	inconclusive: 2.24 µM [inhibitor, full curve, poor fit]
O=C(c1ccco1)N1CCN(c2ncnc3scc(-c4ccc(F)cc4)c23)CC1	inconclusive: 12.6 µM [inhibitor, partial curve, poor fit]
Cc1c(NC(=O)CSc2ccc(Cl)cc2)cccc1-c1nc2cc(Cl)ccc2o1	inconclusive: 3.66 µM [activator, single point]
CN1C/C(=C/c2ccccc2[N+](=O)[O-])C(=O)/C(=C\c2ccccc2[N+](=O)[O-])C1	active: 3.16 µM
CC(C)(C)NC(=O)C(c1ccccc1)N(C(=O)CNC(=O)c1cccs1)c1cccnc1 (centres undefined)	inactive
O=C(CNC(=O)c1cccc(F)c1)N/N=C/c1cccc([N+](=O)[O-])c1	inactive
COc1cc2ncnc(NCc3ccccc3)c2cc1OC	inconclusive: 0.562 µM [activator, partial curve, poor fit]

Structure (SMILES)	Potency
COc1ccc(C(=O)Nc2ccc(NC(=O)c3cccc(F)c3)cn2)cc1	inactive
CCC(c1nnnn1Cc1ccco1)N(Cc1cc2cc(OC)ccc2[nH]c1=O)C1CCCCC1 (centres undefined)	inconclusive: 28.2 µM [inhibitor, single point]
CCOC(=O)C1CCN(C(=O)C2CCN(S(=O)(=O)c3ccc4c(c3)CC(C)N4C(C)=O)CC2)CC1 (centres undefined)	inconclusive: 3.16 µM [inhibitor, partial curve, poor fit]
O=C1CCCc2ccccc2N1Cc1ccc(Cl)cc1Cl	inconclusive: 35.5 µM [inhibitor, single point]
CC(=O)c1cc2c(cc1NC(=O)CCc1ccccc1)OCO2	inactive
Cc1ccc([N+](=O)[O-])c(OCCN2CCCCCC2)c1	inconclusive: 25.9 µM [inhibitor, single point]
CCOC(=O)C(=CNNc1cccc(Cl)c1)C(=O)OCC	inconclusive: 35.5 µM [inhibitor, single point]
Cc1cccc(NC(=O)Cn2c(C)c(C#N)c3ccccc32)c1C	inconclusive: 1.26 µM [inhibitor, partial curve, poor fit]
CCOC(=O)CC1COCCN1C(=O)c1ccc2oc(Cc3ccccc3)nc2c1 (centres undefined)	inactive
Cc1ccc(C(=O)NCC(=O)N2CCN(S(=O)(=O)c3cccs3)CC2)s1	inconclusive: 31.6 µM [activator, single point]
C=CCNC(=S)N/N=C/c1ccc(N(CC)Cc2ccccc2)cc1	active: 11.6 µM
COc1ccc(Br)cc1/C=C/C(=O)OCC(=O)NCCc1ccc(S(N)(=O)=O)cc1	inconclusive: 0.355 µM [inhibitor, full curve, poor fit]
CCOC(=O)c1c(NC(=O)Cn2c(C)nc3ccccc32)sc2c1CCC2	inconclusive: 14.6 µM [inhibitor, partial curve, poor fit]
COc1ccccc1CNCC(=O)Nc1cc(S(=O)(=O)N2CCCCCC2)ccc1Cl	inconclusive: 35.5 µM [inhibitor, single point]
Cc1nnc(NCc2ccc(F)cc2)c2c1nnn2Cc1ccccc1Cl	inconclusive: 35.5 µM [activator, single point]
Cc1ccc(C2=NNC(C(O)C(O)C(O)CO)S2)cc1 (centres undefined)	inactive
CCCC(=O)NC(c1ccc(Cl)cc1)c1ccc2cccnc2c1O (centres undefined)	active: 3.55 µM
CC(Cc1ccccn1)NC(=O)CCc1nnc(C2CCCCC2)o1 (centres undefined)	inactive
CCOc1ccc2[nH]c3c(N4CCC5(CC4)OCCO5)ncnc3c2c1	inconclusive: 11.2 µM [inhibitor, partial curve, poor fit]
CC(=O)OC(C)(CCC(C)(OC(C)=O)C(C)=O)C(C)=O (centres undefined)	inactive
Cc1cccc(Nc2nc(-c3ccc(F)c(C)c3)cs2)n1	inconclusive: 35.5 µM [inhibitor, single point]
CCCNC(=O)c1cc2nc(-c3ccccc3)cc(C(F)(F)F)n2n1	inactive
O=C(NCC(O)c1ccc([N+](=O)[O-])cc1)C(c1ccccc1)c1ccccc1 (centres undefined)	inconclusive: 12.6 µM [inhibitor, partial curve, poor fit]

Reprinted at random: 2 records from the list, in no set order.
Structure (SMILES)	Potency
Cc1ccc(C2=NNC(C(O)C(O)C(O)CO)S2)cc1 (centres undefined)	inactive
CCC(c1nnnn1Cc1ccco1)N(Cc1cc2cc(OC)ccc2[nH]c1=O)C1CCCCC1 (centres undefined)	inconclusive: 28.2 µM [inhibitor, single point]
